Reference: PubChem BioAssay AID686938 (Drosophila RNAi Screening Center, 2013)
In all, the deposit lists about 23,000 reagents; this is an unselected part of those with a known target gene and a result. Over the whole deposit, 75 (0.33%) are marked active. 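Raw plate signals without normalisation; calls rest on plate z-scores that were not deposited; ratio present for only 364 wells.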 A number with no mark means an inactive call. Names joined by + are all predicted targets of the reagent. The record does not give: the dose of the treatment.

- Aim: 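Knock-downs reducing store-operated calcium influx in Drosophila cells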 (primary screen)
- Cell system: Drosophila S2R+ cells
- Reagent: long dsRNA against Drosophila genes, about 0.25 µg dsRNA per well, roughly 10,000 cells
- Timing: 5 days of knock-down before the calcium assay
- Conditions: thapsigargin (SERCA pump blocker) to empty calcium stores; entry signal taken 4 min after adding it
- Measured: 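Per-well fluo-4 fluorescence in two replicates, unnormalised, measured in resting cells and 4 min after store depletion by the SERCA blocker thapsigargin; ratio of the two present in few wells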
- Reading the numbers: calcium entry signal: higher = stronger calcium signal after store depletion; entry to resting ratio: higher = more calcium entry relative to resting level; resting calcium signal: higher = higher resting calcium signal
- Rule for the call: 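Hit if the duplicate-averaged plate z-score for entry over resting signal is under −3; wells with weak total dye signal (Fmax z < −2) or more than 5 off-targets removed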
- Meaning of the calls: active = strongly reduced calcium entry; inactive = no strong reduction

no.	gene	dsRNA	calcium entry signal, replicate 1 (fluorescence units)	calcium entry signal, replicate 2 (fluorescence units)	entry to resting ratio	resting calcium signal, replicate 1 (fluorescence units)	resting calcium signal, replicate 2 (fluorescence units)
1	Diap1 (Death-associated inhibitor of apoptosis 1)	DRSC11404	2.03e7	1.75e7		1.21e7	1.77e7
2	Lpin (Lipin)	DRSC07241	4.63e7	3.16e7		1.93e7	1.56e7
3	fs(1)Ya (female sterile (1) Young arrest)	DRSC18776	3.69e7	4.50e7		1.87e7	2.10e7
4	fs(1)Ya (female sterile (1) Young arrest)	DRSC23058	3.26e7	3.36e7		1.75e7	1.57e7
5	Coprox (Coproporphyrinogen oxidase)	DRSC01996	3.89e7	3.63e7		2.28e7	1.71e7
6	Prp39 (pre-mRNA processing factor 39)	DRSC15133	4.18e7	4.14e7		1.76e7	1.73e7
7	shn (schnurri)	DRSC05266	5.22e7	5.12e7		2.54e7	2.29e7
8	shn (schnurri)	DRSC07681	2.38e7	2.59e7		1.07e7	1.22e7
9	CG7369	DRSC11822	2.79e7	6.23e7		1.39e7	2.99e7
10	CG8281	DRSC10976	3.17e7	4.09e7		1.45e7	1.81e7
11	CG31077	DRSC13805	3.02e7	2.16e7		1.33e7	1.13e7
12	Npl4 (Nuclear protein localization 4)	DRSC15615	2.93e7	4.30e7		1.44e7	2.10e7
13	Npl4 (Nuclear protein localization 4)	DRSC15616	2.60e7	2.03e7		1.40e7	1.15e7
14	CG14490	DRSC06461	4.50e7	3.31e7		1.77e7	1.64e7
15	Hipk (Homeodomain interacting protein kinase)	DRSC07885	4.87e7	5.70e7		3.14e7	2.91e7
16	Hipk (Homeodomain interacting protein kinase)	DRSC08507	5.06e7	4.50e7		2.18e7	2.16e7
17	Hipk (Homeodomain interacting protein kinase)	DRSC23155	3.35e7	3.64e7		1.81e7	1.96e7
18	mRpL24 (mitochondrial ribosomal protein L24)	DRSC03113	4.82e7			1.60e7	
19	CG31016	DRSC21359	3.00e7	3.72e7		1.71e7	1.62e7
20	Lztr1 (Leucine zipper like transcription regulator 1)	DRSC18176	3.77e7	5.50e7	2	1.90e7	2.03e7
21	Lztr1 (Leucine zipper like transcription regulator 1)	DRSC18647	3.54e7	6.35e7	2.1	1.70e7	2.20e7
22	MED15 (Mediator complex subunit 15)	DRSC00267	3.41e7			1.92e7	
23	CG17385	DRSC06664	2.28e7	3.16e7		1.08e7	1.24e7
24	CG9289	DRSC03187	3.51e7	5.08e7		1.73e7	2.20e7
25	Sec24CD (Secretory 24CD)	DRSC00300	2.75e7			1.76e7	
26	Mettl2 (Methyltransferase like 2)	DRSC08398	3.69e7	3.37e7		1.74e7	1.68e7
27	Jasper (JIL-1 anchoring and stabilizing protein)	DRSC16352	3.26e7	4.55e7		1.59e7	1.93e7
28	Tbca (Tubulin binding cofactor A)	DRSC15395	2.83e7	3.55e7		1.34e7	1.69e7
29	Glg1 (Golgi complex-localized glycoprotein 1)	DRSC11815	2.95e7	3.96e7		1.31e7	2.57e7
30	Glg1 (Golgi complex-localized glycoprotein 1)	DRSC11816	2.69e7	5.36e7		1.36e7	2.04e7
31	Glg1 (Golgi complex-localized glycoprotein 1)	DRSC11817	2.56e7	3.41e7		1.26e7	1.48e7
32	PIG-H (Phosphatidylinositol glycan anchor biosynthesis class H)	DRSC14856	4.31e7	3.05e7		2.05e7	1.45e7
33	CR43361 (pseudo)	DRSC17206	5.42e7	4.86e7	2.1	2.54e7	2.03e7
34	Cpr5C (Cuticular protein 5C)	DRSC18340	3.86e7	5.61e7		1.90e7	3.00e7
35	Dh31 (Diuretic hormone 31)	DRSC02196	3.92e7	5.90e7		1.93e7	2.41e7
36	CR32733 + CG32797	DRSC17705	5.04e7	5.36e7		2.21e7	2.66e7
37	SMC2 (Structural maintenance of chromosomes 2)	DRSC07544	4.38e7	3.65e7		2.28e7	2.10e7
38	Tim17a1	DRSC14184	3.16e7	3.04e7		1.57e7	1.65e7
39	slif (slimfast)	DRSC11635	4.44e7	4.87e7		1.99e7	3.50e7
40	svp (seven up)	DRSC12899	3.40e7	3.83e7		1.92e7	1.82e7
41	svp (seven up)	DRSC15311	1.60e7	2.42e7		1.10e7	1.43e7
42	svp (seven up)	DRSC17075	3.27e7	5.19e7		1.59e7	2.66e7
43	RasGAP1 (Ras GTPase activating protein 1)	DRSC11172	3.17e7	4.89e7		1.60e7	2.19e7
44	Syt7 (Synaptotagmin 7)	DRSC17130	5.57e7	6.07e7	2.2	2.55e7	2.32e7
45	Syt7 (Synaptotagmin 7)	DRSC17159	4.94e7	5.38e7	2	2.43e7	2.27e7
46	CG7443	DRSC16244	3.03e7	2.22e7		1.56e7	1.12e7
47	Daxx (Daxx-like protein)	DRSC03255	4.52e7			2.26e7	
48	Ankrd49	DRSC01894	4.01e7	2.44e7		1.85e7	1.22e7
49	CG31099	DRSC14252	3.35e7	3.53e7		1.92e7	1.64e7
50	Muc11A (Mucin 11A)	DRSC19498	3.92e7	3.94e7		1.84e7	2.30e7
51	Rgk2 (Rad, Gem/Kir family member 2)	DRSC06503	5.66e7	6.89e7		2.40e7	2.98e7
52	Rgk2 (Rad, Gem/Kir family member 2)	DRSC21651	3.89e7	3.93e7		2.13e7	1.80e7
53	CG32161	DRSC22128	2.16e7	3.97e7		1.10e7	1.80e7
54	eIF3h (eukaryotic translation initiation factor 3 subunit h)	DRSC01995	2.78e7			1.55e7	
55	CG14857	DRSC14981	3.33e7	4.85e7		1.64e7	7.11e7
56	OXA1L (OXA1L mitochondrial inner membrane protein)	DRSC09672	5.03e7	4.06e7		3.37e7	1.62e7
57	Smu1 (Smu1 spliceosomal factor)	DRSC15803	4.56e7	2.40e7		1.96e7	1.12e7
58	CG10286	DRSC12520	3.09e7	4.41e7		1.40e7	1.96e7
